Assay results as given in paper PMC8369502, “High-Throughput Drug Screening System Based on Human Induced Pluripotent Stem Cell-Derived Atrial Myocytes ∼ A Novel Platform to Detect Cardiac Toxicity for Atrial Arrhythmias” (Frontiers in Pharmacology, 2021).

Assays:
[1] = tested on: AM (RA-treated hiPS-CMs, atrial-like); assay: High-throughput membrane potential recording (FluoVolt, FDSS/μCell) in AM; assay type: cell-based, human
Method: (§1) Using a high-throughput screening system (FDSS/μCell), we assessed the drug toxicity of several experimental drugs on hiPS-derived atrial myocytes as well as control hiPS-derived cardiomyocytes. Membrane potential was used as one of the parameters during the assessment.
(§2) After purification, hiPS-derived cardiomyocytes were plated in 96-well plates for downstream drug response assessment using FluoVolt™ Membrane Potential Kit. […] The comparison of variance in the response of drug administration in CT and AM was represented by the percentage of changes based on their baseline values respectively.
(§3) FluoVolt™ Membrane Potential Kit (ThermoFisher […], F10488, Massachusetts, United States) was used to measure membrane potentials. The basic procedure was performed in accordance with the manufacturer’s instructions. […] MP were recorded at excitation and emission stages at wavelengths of 470 and 540 nm, respectively. […] Stock solutions of the test compounds were prepared in 100% DMSO, and serially diluted 1/40 into compound plates for testing (0.5% DMSO was the maximum concentration in all wells). The compounds were automatically pipetted from the compound plate, and 12 μL was loaded in the wells already containing the cells with 48 μL of media. Recording data were analyzed using Waveform Analysis of Cardiomyocyte Software (Ver.1.2.1J, Hamamatsu Photonics K.K.). Data values for a well were averaged from waveforms that arose during 30 s. The beat rate (BR; beats per minute), waveform amplitude (AMP), and duration at 30, 50, and 80% of decay (PWD30, PWD 50, and PWD 80, respectively) were used as evaluation parameters. PWDs were corrected using the Fridericia formula. PWD30-80 was calculated as the difference between PWD80 and PWD30. Each parameter was calculated as percentage change (%) from the value before test compound addition.

[2] = tested on: CT (control hiPS-CMs without RA, ventricular-like); assay: High-throughput membrane potential recording (FluoVolt, FDSS/μCell) in CT; assay type: cell-based, human
Method: as §1, §2, §3

[3] = AM, % change from value before compound addition, 10 min after addition (Bay K 8644: 3 min)
[4] = AM, concentration range as stated in the source
[5] = CT, % change from value before compound addition, 10 min after addition (Bay K 8644: 3 min)
[6] = CT, concentration range as stated in the source

## COc1cc2c(cc1OC)C(=O)C(CC1CCN(Cc3ccccc3)CC1)C2 (stereo not shown) [Donepezil]
[1]; AM
  PWD30-80 (in words): prolonged
  PWD80cF (in words): prolonged
[1]; [3]
  Beat Rate: ↓
  Falling Slope: ↓
  PWD30cF: ↑
  PWD80cF: ↑
  Rising Slope: ↓
[1]; [4]
  beating rate (in words): dose-dependent decrease
  falling slope of membrane potential (in words): dose-dependent decrease
  rising slope of membrane potential (in words): dose-dependent decrease
[1]; human, 10 min
  arrest (count printed in the figure): 6/6
  concentration at which cessation of beating was elicited: higher than 30 μM
[1]; human, 10 min, 10 μM
  incidence of arrhythmia-like waveforms: arrest: 100%
[2]; CT
  PWD30-80 (in words): prolonged
  PWD80cF (in words): prolonged
[2]; [5]
  Falling Slope: ↓
  PWD80cF: ↑
  Rising Slope: ↓
[2]; [6]
  beating rate (in words): dose-dependent decrease
  falling slope of membrane potential (in words): dose-dependent decrease
  rising slope of membrane potential (in words): dose-dependent decrease
[2]; human, 10 min
  EAD (count printed in the figure): 2/6
  arrest (count printed in the figure): 4/6
  concentration at which cessation of beating was elicited: higher than 30 μM
[2]; human, 10 min, 10 μM
  EAD observed (cases): 2 of 6
  cessation of beating / arrest (cases): 4
  incidence of arrhythmia-like waveforms: EAD: 33%
  incidence of arrhythmia-like waveforms: arrest: 67%
